Experimental data taken from PubChem BioAssay AID2551 (National Center for Advancing Translational Sciences (NCATS), 2010).
Among all 310,000 compounds or so, about 17,000 (5.5%) were called active. This list was built around the results that the source calls inconclusive (neither active nor inactive); the mix of calls is not that of the screen. Calls follow the shape of the dose curve; as a rule, active = well fitted inhibition curve with a large enough effect; inconclusive = small, poorly fitted or top-dose-only effect, or effect the other way; inactive = no such curve, though single readings can be large or run the other way. Potencies of inconclusive entries are doubtful fits and often do not repeat.

Protein sequences, listed by entry. Tags and fused reporters are not part of them. Lines headed by an entry give the natural chain unless they say otherwise; changes in a name come on top.
UniProt P51450: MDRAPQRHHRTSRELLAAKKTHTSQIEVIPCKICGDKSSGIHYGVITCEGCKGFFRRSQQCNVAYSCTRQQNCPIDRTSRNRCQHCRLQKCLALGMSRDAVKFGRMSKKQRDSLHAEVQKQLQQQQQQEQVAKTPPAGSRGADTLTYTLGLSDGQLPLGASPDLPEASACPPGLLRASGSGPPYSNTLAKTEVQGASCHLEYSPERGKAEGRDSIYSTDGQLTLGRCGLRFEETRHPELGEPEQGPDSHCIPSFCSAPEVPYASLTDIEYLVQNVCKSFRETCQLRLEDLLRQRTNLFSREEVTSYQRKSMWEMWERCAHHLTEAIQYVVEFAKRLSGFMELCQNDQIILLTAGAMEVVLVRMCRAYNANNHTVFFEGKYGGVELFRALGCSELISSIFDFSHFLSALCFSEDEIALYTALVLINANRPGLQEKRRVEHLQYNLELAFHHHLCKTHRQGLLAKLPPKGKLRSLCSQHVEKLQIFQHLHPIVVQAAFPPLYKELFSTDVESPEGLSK

target: Nuclear receptor ROR-gamma (Mus musculus) (UniProt P51450); assay: qHTS for inhibitors of ROR gamma transcriptional activity; details: Drosophila S2 Gal4-RORgamma UAS-luciferase reporter, 20 h; activity change, negative = inhibition: at 53.6 µM (top of the series); also: nearly all actives have a fitted effect of over 60% in size
Outline: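 Drosophila S2 cells stably expressing Gal4-DBD/mouse RORγ fusion under metallothionein promoter plus UAS-luciferase; compound 1 h, then 700 uM CuSO4 induction for 20 h at ambient temperature; inhibition read as reduced luminescence.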
% is scaled to controls: 0 for no effect and ±100 for the full control effect; potency is read from the fitted curve at half-maximal effect.

Structure (SMILES)	Potency	activity change, negative = inhibition
OCn1ncn(-c2ccccc2)c1=S	inconclusive: 22.4 µM [inhibitor, single point]	–
CCCNC(=S)Nc1ccc(F)cc1F	inconclusive: 35.5 µM [inhibitor, single point]	–
COc1ccc(CN2C(=O)NC3(CCCCCC3)C2=O)cc1F	–	inactive: 43.7%
Cc1ccc2nc(Nc3nc(=O)c4ccccc4n3C)nc(C)c2c1	active: 0.794 µM	–
FC(F)Oc1ccc(-c2csc(NNC3=NCCCCC3)n2)cc1	inconclusive: 35.5 µM [inhibitor, single point]	–
COc1ccc2c(c1)C(=O)[C@H](OC(=O)NCc1ccc3c(c1)OCO3)[C@@H](c1ccc(OC)c(Br)c1)O2	–	inactive: -9.54%
CCCCNC(=S)NNC(=O)C1=NN(c2cc(C)ccc2C)C(=O)CC1	inconclusive: 12.6 µM [inhibitor, partial curve]	–
CC(C)(C)OC(=O)n1cc(/C=N/NC(=O)c2ccco2)c2ccccc21	inconclusive: 22.4 µM [inhibitor, single point]	–
O=C(Nc1ccc(Nc2ccccc2)cc1)c1ccco1	inconclusive: 0.501 µM [activator, full curve]	–
Cc1cccc(NC(=O)C2SC(=Nc3c(C)cccc3C)C(C(=O)N3CCOCC3)=C2N)c1 (stereo not drawn)	inconclusive: 0.562 µM [inhibitor, full curve, poor fit]	–
COc1ccc(S(=O)(=O)N(Cc2ccc(OC)c(OC)c2)Cc2ccco2)cc1	inconclusive: 12.6 µM [activator, single point]	–
Cc1ncc(CO)c(/C=N/NC(=O)c2ccc(Br)cc2)c1O	active: 11.2 µM	–
Oc1[nH]c(=S)sc1C=C1N=c2ccccc2=N1	–	inactive: -14.1%
COc1cccc(NC(=S)NC(=O)c2c(Cl)c(C)nn2C)c1	active: 3.55 µM	–
Cc1ccc2nc(N/N=C/c3ccco3)cc(C)c2c1	active: 6.31 µM	–
CC1(C)CC(=O)C(C2(O)C(=O)N(Cc3ccccc3)c3ccccc32)CO1 (stereo not drawn)	–	inactive: 1.27%
CCNC(=O)COc1ccc(-c2ccccc2)cc1	inconclusive: 0.708 µM [activator, single point]	–
COCCCNC(=S)NNC(=O)C(O)(c1ccccc1)c1ccccc1	–	inactive: -39.9%
OCC1CCCCN1C(=S)Nc1ccc(Cl)cc1Cl (stereo not drawn)	inconclusive: 35.5 µM [inhibitor, single point]	–
Cc1ccccc1C(=O)c1c[nH]c(C(=O)NCc2cccs2)c1	inconclusive: 11.2 µM [activator, partial curve]	–
O=C1OCCC1S(=O)(=O)c1ccc2ccccc2c1 (stereo not drawn)	–	inactive: -14.5%
Cc1cc(C)c(NC(=O)c2cccc3c2C(=O)N(C2CCCCC2)C3)c(C)c1	–	inactive: -20.4%
CCOc1cc(Br)cc(/C=C2\SC(=Nc3ccccc3)NC2=O)c1O	inconclusive: 35.5 µM [inhibitor, single point]	–
N#CC1=C(N)Oc2c(ccc3cccnc23)C1c1ccncc1 (stereo not drawn)	inconclusive: 22.4 µM [inhibitor, single point]	–
COc1ccc(NC(=O)c2sc3nc(N4CCOCC4)c4c(c3c2N)CC(C)(C)OC4)c(OC)c1	–	inactive: -3.95%

Structure (SMILES)	Potency	activity change, negative = inhibition
Cc1cc(C)n2nc(-c3cccc(Br)c3)cc2n1	inconclusive: 3.16 µM [inhibitor, full curve, poor fit]	–
O=C(O)COc1ccc(-c2nccc(-c3ccccn3)n2)cc1	inconclusive: 7.94 µM [inhibitor, partial curve]	–
O=C(CSc1nc2ccccc2c(=O)[nH]1)Nc1ccccc1O	inconclusive: 8.91 µM [inhibitor, partial curve]	–
CCN1C(=O)c2cccc3c(S(=O)(=O)N(C(=O)c4ccncc4)c4ccc(OC)cc4)ccc1c23	inconclusive: 35.5 µM [inhibitor, single point]	–
O=[N+]([O-])c1ccc2c(c1)Nc1nc3ccccc3nc1N2	inconclusive: 17.8 µM [activator, single point]	–
COc1cc(C(=O)NC(=S)Nc2ccc([N+](=O)[O-])cc2C)cc(OC)c1OC	inconclusive: 12.6 µM [inhibitor, partial curve, poor fit]	–
CC1(C)C2CCC1(C)C(OC(=O)c1ccc(O)cc1)C2 (stereo not drawn)	inconclusive: 12.6 µM [inhibitor, single point]	–
CCOC(=O)c1ccccc1NC(=O)Cn1c(-c2nonc2N)nc2ccccc21	inconclusive: 22.4 µM [inhibitor, single point]	–
O=C(NC(=C(Cl)Cl)S(=O)(=O)c1ccc(Cl)cc1)c1ccccc1	inconclusive: 15.8 µM [inhibitor, single point]	–
S=c1[nH]nc(-c2cccc3ccccc23)n1-c1cccnc1	–	inactive: -43.3%
Cc1ccc(-c2nn(-c3ccccc3)cc2/C=N/NC(=O)c2ccc(Br)o2)cc1	active: 2.82 µM	–
O=C(N/N=C/C1CC=CCC1)c1ccc(Cl)cc1O (stereo not drawn)	active: 12.6 µM	–
COc1ccc(-c2nc(Cn3c(SCc4ccc(F)cc4)nc4ccncc43)c(C)o2)cc1OC	inconclusive: 11.2 µM [activator, single point]	–
Cc1nc(NC2CCCCC2)c2nc(-c3ccccc3)n(C(C)CN(C)C)c2n1 (stereo not drawn)	active: 10 µM	–
O=C(C[n+]1ccccc1)N/N=C/c1ccc(O)cc1	–	inactive: 0.902%
COC(=O)CCC(=O)NNC(=O)CCCOc1ccc(Cl)cc1Cl	–	inactive: 11.7%
Cc1ccc(-c2c(C(=O)NCc3ccccc3)oc(=O)c3ccccc23)cc1	inconclusive: 112 µM [inhibitor, partial curve, poor fit]	–
Cc1ccc(-n2cc(CNC(C)c3cnn(C)c3C)c(-c3ccc(F)cc3)n2)cc1 (stereo not drawn)	inconclusive: 35.5 µM [inhibitor, single point]	–
CC(=O)Nc1ccc(S(=O)(=O)Nc2ccc3c(c2)OCCO3)cc1Cl	inconclusive: 2.51 µM [activator, single point]	–
COc1cccc(N2CCN(C(=S)Nc3ccccc3)CC2)c1	–	inactive: -12.7% [at 1.91 µM]
CCOc1ccc(NC(=S)NC(=O)c2c(Cl)cnn2CC)c([N+](=O)[O-])c1	active: 7.94 µM	–
CCCCC(CC)COC(=O)CC(C(=O)OCC(CC)CCCC)S(=O)(=O)O (stereo not drawn)	–	inactive: 1.16%
Cc1noc(C)c1-c1cc(NC2CC2)ncn1	inconclusive: 31.6 µM [inhibitor, single point]	–
Cc1cc(C(=O)Nc2ccc(Cl)cc2)c(C)n1Cc1cccs1	inconclusive: 35.5 µM [inhibitor, single point]	–
CC(C)(C)C(=O)CSc1nc2c(c(-c3cccs3)c1C#N)CCC2	inconclusive: 14.1 µM [activator, partial curve]	–

3 neighbouring compounds already listed:
Structure (SMILES)	Potency	activity change, negative = inhibition
Cc1ccc(-c2nn(-c3ccccc3)cc2/C=N/NC(=O)c2ccc(Br)o2)cc1	active: 2.82 µM	–
O=C(N/N=C/C1CC=CCC1)c1ccc(Cl)cc1O (stereo not drawn)	active: 12.6 µM	–
COc1ccc(-c2nc(Cn3c(SCc4ccc(F)cc4)nc4ccncc43)c(C)o2)cc1OC	inconclusive: 11.2 µM [activator, single point]	–

Later entries:

Structure (SMILES)	Potency	activity change, negative = inhibition
COc1cc(/C=C(\C#N)C(=O)Nc2cccc(C(=O)O)c2)ccc1OCc1ccc(C)cc1	inconclusive: 31.6 µM [activator, single point]	–
C(=Nc1ccc(Nc2ccccc2)cc1)c1ccc2ccccc2c1	inconclusive: 12.6 µM [inhibitor, partial curve, poor fit]	–
O=C(COC(=O)CCCSc1nc2ccccc2[nH]1)Nc1ccc(Cl)cc1	–	inactive: 2.42%
COc1ccc(-c2cn(CCO)nc2-c2ccc(OC)cc2)cc1	–	inactive: 14.6%
O=C(Nc1ccccc1C(=O)O)c1ccc(NC(=O)C2CC2)cc1	–	inactive: -25.7%
CN(C)CCCN(C(=O)c1ccc2c(c1)CCCC2)c1nc2c(F)cccc2s1	inconclusive: 22.4 µM [inhibitor, single point]	–
CC(C)c1nc2ccccc2c2nnc(SCC(=O)NCc3ccco3)n12	–	inactive: -4.25%
O=C(CN1C(=O)CCS(=O)(=O)c2ccccc21)Nc1cccc(Cl)c1	inconclusive: 3.16 µM [activator, full curve, poor fit]	–
Oc1c(Cl)cc(Cl)cc1CNc1ccc(Br)cn1	inconclusive: 20 µM [activator, partial curve, poor fit]	–
CCc1ccccc1NCC(=O)Nc1ccccc1C(=O)OC	inconclusive: 11.2 µM [activator, partial curve]	–
Cc1c(Cl)cccc1NC(CC(=O)c1ccccc1)C(=O)O (stereo not drawn)	active: 7.94 µM	–
COc1ccc(CN2CCN(Cc3nc4ccccc4s3)CC2CCO)c(C)c1C (stereo not drawn)	inconclusive: 31.6 µM [activator, single point]	–
Cc1ccsc1C(=O)OCC(=O)Nc1ccc(Cl)cc1C(F)(F)F	–	inactive: 5.34%
COc1cccc(C(=O)C2CCCN(C(=O)CCc3scnc3C)C2)c1 (stereo not drawn)	inconclusive: 5.62 µM [activator, partial curve]	–
C=CCn1cn[nH]c1=S	inconclusive: 14.1 µM [inhibitor, single point]	–
O=C(CN1C(=O)C2CCCCC2C1=O)Nc1nccs1 (stereo not drawn)	–	inactive: 7.68%
CCc1nnc(NS(=O)(=O)c2ccc(N/C=C\C(=O)c3ccc(F)cc3)cc2)s1	inconclusive: 6.31 µM [activator, full curve, poor fit]	–
O=C(c1cc(COc2ccc(F)cc2F)on1)N1CCN(C(=O)c2ccco2)CC1	inconclusive: 35.5 µM [activator, single point]	–
COc1ccccc1C(=O)NNC(=S)NC(=O)c1cc(OC)c(OC)c(OC)c1	inconclusive: 12.6 µM [inhibitor, partial curve, poor fit]	–
CC(C)(C)C(=O)Nc1ccc(/C=C/C(=O)c2ccco2)cc1	active: 10 µM	–
CCSc1nnc(-c2cc(Br)ccc2N)c(=O)[nH]1	inconclusive: 12.6 µM [activator, partial curve]	–
O=[N+]([O-])c1ccc(N2CCN(C(=S)Nc3ccc(F)cc3F)CC2)cc1	active: 12.6 µM	–
O=S(=O)(Nc1ccc(S(=O)(=O)N2CCOCC2)cc1)c1ccccc1	–	inactive: -16.3%
